{
  "sequences": {"note": "Amino acid sequences for entries named in this document (tags omitted).", "UniProt Q8NER1, whole entry, looked up": "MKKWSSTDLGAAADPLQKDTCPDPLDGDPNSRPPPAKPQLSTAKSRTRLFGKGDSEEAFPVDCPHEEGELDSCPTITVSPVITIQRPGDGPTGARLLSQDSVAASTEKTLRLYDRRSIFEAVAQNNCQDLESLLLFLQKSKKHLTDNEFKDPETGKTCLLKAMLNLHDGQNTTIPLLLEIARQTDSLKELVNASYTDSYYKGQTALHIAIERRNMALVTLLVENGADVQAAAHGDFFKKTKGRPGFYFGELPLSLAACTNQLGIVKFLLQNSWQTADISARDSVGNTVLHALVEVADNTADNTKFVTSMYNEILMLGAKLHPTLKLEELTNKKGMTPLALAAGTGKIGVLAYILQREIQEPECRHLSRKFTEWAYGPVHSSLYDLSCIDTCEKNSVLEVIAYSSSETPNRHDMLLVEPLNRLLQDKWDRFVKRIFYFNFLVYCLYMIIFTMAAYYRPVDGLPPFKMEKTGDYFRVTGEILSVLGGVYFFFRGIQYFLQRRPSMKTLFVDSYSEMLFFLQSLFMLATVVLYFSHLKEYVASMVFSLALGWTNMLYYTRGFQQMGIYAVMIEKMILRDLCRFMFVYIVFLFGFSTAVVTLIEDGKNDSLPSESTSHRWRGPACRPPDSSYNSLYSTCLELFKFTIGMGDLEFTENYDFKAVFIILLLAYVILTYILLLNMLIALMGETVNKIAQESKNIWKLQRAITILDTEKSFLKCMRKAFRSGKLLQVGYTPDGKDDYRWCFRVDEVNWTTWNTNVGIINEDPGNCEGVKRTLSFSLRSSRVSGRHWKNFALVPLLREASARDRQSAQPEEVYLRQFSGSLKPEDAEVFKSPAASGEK"},
  "source": "PubChem BioAssay AID540275",
  "about": "(National Center for Advancing Translational Sciences (NCATS), 2011)",
  "note": "The campaign covered roughly 320,000 compounds. About 620 (0.19%) were called active. Inconclusive results, whose numbers are uncertain, are shown with a selection of clear calls. Rule as the data show it: active = activation above about 80%; inconclusive = between about 30% and that limit; inactive = weaker than that.",
  "data": [
    {"molecular_target": "Transient receptor potential cation channel subfamily V member 1 (Homo sapiens) (UniProt Q8NER1)", "assay": "HTS Assay for Compounds that Act as Agonists of the Vanilloid Receptor 1; also: 0% is about no effect", "conditions": "TRPV1-expressing cells, Fluo-8 calcium influx, agonist mode; at 8.33 µM, stronger effect = higher value", "procedure,_shortened": "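Cells expressing TRPV1 were dye-loaded with Fluo-8 and read kinetically: 10 s baseline, 3 min after compound (agonist portion), then 2 min after EC20 capsaicin (allosteric enhancer portion). Calcium-bound dye fluorescence at 480/520 nm.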", "values": [
      {"smiles": "CCOC(=O)c1nnn(-c2nonc2N)c1CSc1nnc(N)s1", "activation": "inactive: -3.77%"},
      {"smiles": "O=C(NCc1nc2ccccc2[nH]1)C1=C[C@@H](c2ccc(Br)cc2)C[C@@H](OCCCCO)O1", "activation": "inactive: 2.76%"},
      {"smiles": "COc1ccc(NC2CCCN(C(=O)COc3ccc(C)cc3)C2)cc1", "note": "(centres undefined)", "activation": "inconclusive: 66%"},
      {"smiles": "Cc1cc(NS(=O)(=O)c2ccc(NC(=O)C(C)Oc3ccc4c(C)cc(=O)oc4c3)cc2)no1", "note": "(centres undefined)", "activation": "inactive: 2.11%"},
      {"smiles": "CCN(CC)S(=O)(=O)c1ccc(N2CCOCC2)c(NC(=O)c2ccc3c(c2)OCCO3)c1", "activation": "inconclusive: 31.4%"},
      {"smiles": "O=S(=O)(CCN1CCOCC1)c1ccc(Oc2ccc(S(=O)(=O)CCN3CCOCC3)cc2)cc1", "activation": "inactive: -0.158%"},
      {"smiles": "O=C(NCc1ccc2c(c1)OCO2)c1nnc(Cc2ccc(Cl)cc2)o1", "activation": "inconclusive: 30.9%"},
      {"smiles": "O=C(CSc1cccs1)NCCc1ccccc1", "activation": "inconclusive: 30.2%"},
      {"smiles": "O=C(COc1cccc(C(F)(F)F)c1)NCC(c1ccco1)N1CCCCC1", "note": "(centres undefined)", "activation": "inconclusive: 54.3%"},
      {"smiles": "CCc1nc(=O)c(-c2ccccc2)c(C)n1-c1ccccc1", "activation": "inactive: -0.399%"},
      {"smiles": "COc1cc(CNCCCN2CCOCC2)c(Br)cc1OCC(=O)Nc1ccccc1C", "activation": "inactive: 0.673%"},
      {"smiles": "CC(=O)c1ccc(N2CCN(c3ccnc4cc(Cl)ccc34)CC2)cc1", "activation": "inactive: 2.66%"},
      {"smiles": "COc1ccc(NCC(=O)N/N=C(\\C)c2cc3ccccc3o2)cc1", "activation": "inactive: 21.8%"},
      {"smiles": "CCn1cc(Br)c(C(=O)Nc2ccc(F)c(Cl)c2)n1", "activation": "inconclusive: 34.8%"},
      {"smiles": "O=C(NCc1cccs1)Nc1ccc(Cl)cc1", "activation": "inconclusive: 70.8%"},
      {"smiles": "CCN(CC)c1ccc(/C=N/NC(=O)c2c(Cl)c(C)nn2C)cc1", "activation": "inconclusive: 61.6%"},
      {"smiles": "COc1ccc(CNC(=O)CN(Cc2ccc(Cl)cc2)S(=O)(=O)c2ccccc2)cc1", "activation": "inconclusive: 49%"},
      {"smiles": "CCOC(=O)c1c(NC(=S)Nc2ccc(Cl)cc2)sc(C)c1C", "activation": "inactive: 0.377%"},
      {"smiles": "Cc1cccc(OCC(=O)N2CCN(C(=O)COc3ccc(Cl)cc3)CC2)c1", "activation": "inconclusive: 62.7%"},
      {"smiles": "O=C(CSc1cccs1)Nc1ccc(Cl)cc1", "activation": "inconclusive: 47.2%"},
      {"smiles": "CC(NC(=O)Nc1nccs1)(C(F)(F)F)C(F)(F)F", "activation": "inconclusive: 45.6%"},
      {"smiles": "CC(C)CNC(=O)c1ccc2c(c1)C(=O)N(C1CCCCC1)C2=O", "activation": "inconclusive: 55.5%"},
      {"smiles": "COc1ccccc1/C=C1/SC(=S)N(C(C)C(=O)NC2C=CS(=O)(=O)C2)C1=O", "note": "(centres undefined)", "activation": "inconclusive: 30.5%"},
      {"smiles": "CCn1cc(C(=O)N2CCCC(C(=O)c3ccc4ccccc4c3)C2)cn1", "note": "(centres undefined)", "activation": "inconclusive: 38.4%"},
      {"smiles": "Cc1cc(-c2csc(NC(=O)c3cccc(S(=O)(=O)N(C)C)c3)n2)c(C)n1-c1ccccc1", "activation": "inactive: 2.78%"},
      {"smiles": "CC(C)=C(NC(=O)c1ccccc1)C(=O)NCc1ccccc1", "activation": "inactive: 0.873%"},
      {"smiles": "CCC1Oc2ccc(C)cc2N(CC(=O)N(Cc2cccnc2)Cc2cccc(F)c2)C1=O", "note": "(centres undefined)", "activation": "inconclusive: 45.2%"},
      {"smiles": "Cc1ccc2oc(-c3cccc(NC(=O)Cc4cccs4)c3)nc2c1", "activation": "inconclusive: 31.9%"},
      {"smiles": "CCc1ccc(-n2c(C)cc(/C=N/NC(=O)c3ccncc3)c2C)cc1", "activation": "inconclusive: 59.7%"},
      {"smiles": "Cc1ccc(Cn2c(=O)c3c(nc4n3CCN4Cc3ccco3)n(C)c2=O)cc1", "activation": "inconclusive: 39.3%"},
      {"smiles": "Cc1cc(C)c2c(C)c(C(=O)NCc3ccncc3)oc2c1", "activation": "inconclusive: 51.3%"},
      {"smiles": "C/C(=N\\NC(=O)Cc1ccc(Cl)cc1)c1cccc(NC(=O)c2cccnc2)c1", "activation": "inactive: -0.884%"},
      {"smiles": "N=c1c(C(=O)NCc2ccc(F)cc2)cc2c(=O)n3ccccc3nc2n1CC1CCCO1", "note": "(centres undefined)", "activation": "inconclusive: 31.8%"},
      {"smiles": "O=C(COC(=O)c1nc(Cl)c(Cl)c(Cl)c1Cl)NCc1ccccc1", "activation": "inconclusive: 36.4%"},
      {"smiles": "O=C(c1ccccc1)c1ccc(C(=O)N2CCN(c3ccc(F)cc3)CC2)o1", "activation": "inconclusive: 48.9%"},
      {"smiles": "O=C(/C=C/c1c(Cl)cccc1Cl)Nc1ccncc1", "activation": "inconclusive: 69.2%"},
      {"smiles": "O=C(CCCc1cccs1)Nc1ccc2c(c1)OCO2", "activation": "inconclusive: 44.1%"},
      {"smiles": "Cc1cc(C)c(-c2cc(NC(=O)COC(=O)c3ccc(CO)cc3)n(-c3ccccc3)n2)cc1C", "activation": "inconclusive: 36.3%"},
      {"smiles": "Cc1ccc(/C=C2\\CCCC3=C2NC(=S)NC3c2ccc(C)cc2)cc1", "note": "(centres undefined)", "activation": "inactive: 2.05%"},
      {"smiles": "CC1CCCN(CCCNC(=O)c2coc3nc4ccccc4nc23)C1", "note": "(centres undefined)", "activation": "inactive: -4.38%"},
      {"smiles": "CCC(=O)Nc1cc(C)c(NC(=O)c2ccco2)cn1", "activation": "inactive: 13%"},
      {"smiles": "O=C(N/N=C/c1ccc(F)cc1)c1ccccc1", "activation": "inconclusive: 47.4%"},
      {"smiles": "COC(=O)c1cccc(C(=O)N2CCCC(Nc3ccc4c(c3)OCCO4)C2)c1", "note": "(centres undefined)", "activation": "inconclusive: 46.3%"},
      {"smiles": "CCCN(CCC)Cc1c(C(=O)N/N=C/c2ccco2)nnn1-c1nonc1N", "activation": "inconclusive: 31%"}
    ]}
  ]
}
